The chains behind the UniProt entries cited, without tags or fusion partners.
UniProt Q17RN3: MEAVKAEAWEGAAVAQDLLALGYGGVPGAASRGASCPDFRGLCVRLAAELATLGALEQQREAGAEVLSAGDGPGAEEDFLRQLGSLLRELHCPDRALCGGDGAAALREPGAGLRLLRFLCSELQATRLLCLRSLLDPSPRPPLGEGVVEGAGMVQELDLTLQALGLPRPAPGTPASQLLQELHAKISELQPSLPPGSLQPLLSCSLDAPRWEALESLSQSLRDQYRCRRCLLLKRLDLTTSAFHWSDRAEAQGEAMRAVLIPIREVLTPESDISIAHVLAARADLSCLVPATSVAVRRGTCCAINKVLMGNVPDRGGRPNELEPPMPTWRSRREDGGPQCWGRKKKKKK

According to doi:10.1101/2025.08.01.668163:

Key:
[1] = target: N-terminally FLAG-HA-tagged, full-length FAM98C (human) (UniProt Q17RN3); experiment: affinity purification with mass spectrometry
[2] = target: N-terminally FLAG-HA-tagged, full-length FAM98A (human) (UniProt Q8NCA5); experiment: affinity purification with mass spectrometry

B1: Ashwin (protein, UniProt Q9BVC5 1-232)
chain: MAGDVGGRSCTDSELLLHPELLSQEFLLLTLEQKNIAVETDVRVNKDSLTDLYVQHAIPLPQRDLPKNRWGKMMEKKREQHEIKNETKRSSTVDGLRKRPLIVFDGSSTSTSIKVKKTENGDNDRLKPPPQASFTSNAFRKLSNSSSSVSPLILSSNLPVNNKTEHNNNDAKQNHDLTHRKSPSGPVKSPPLSPVGTTPVKLKRAAPKEEAEAMNNLKPPQAKRKIQHVTWP
- binding [1]: no binding
- binding [2]: no binding

No constants are given. Whether binding was seen depends on the method and setting. In cells and extracts the contact can be indirect. Here binding means that the protein was enriched with, or labelled near, the bait; the list need not be complete. A no says only that the protein was not detected with the bait.
